Among the data in article PMC11673777 are binding values, retold here.

By UniProt entry, the sequences of proteins in these tests, tags left out.
UniProt O95365: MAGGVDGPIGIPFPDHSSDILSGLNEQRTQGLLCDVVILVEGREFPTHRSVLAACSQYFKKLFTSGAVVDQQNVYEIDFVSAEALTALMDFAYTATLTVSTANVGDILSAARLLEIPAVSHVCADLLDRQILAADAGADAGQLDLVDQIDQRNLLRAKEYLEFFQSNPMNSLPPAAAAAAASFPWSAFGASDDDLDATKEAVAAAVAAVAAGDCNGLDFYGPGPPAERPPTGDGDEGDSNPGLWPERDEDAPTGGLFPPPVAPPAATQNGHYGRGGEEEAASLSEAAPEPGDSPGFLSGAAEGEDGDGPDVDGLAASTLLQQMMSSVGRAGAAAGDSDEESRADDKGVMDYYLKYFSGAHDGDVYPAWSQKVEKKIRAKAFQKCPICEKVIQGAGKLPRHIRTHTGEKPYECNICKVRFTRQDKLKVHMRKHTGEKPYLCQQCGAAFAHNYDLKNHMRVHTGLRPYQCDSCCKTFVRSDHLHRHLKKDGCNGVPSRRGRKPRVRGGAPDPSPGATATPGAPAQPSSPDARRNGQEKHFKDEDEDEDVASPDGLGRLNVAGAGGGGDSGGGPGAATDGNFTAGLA

The target of the test is T1, V5-tagged human transglutaminase 2 (TG2) (human) (UniProt P21980).
T1 sequence: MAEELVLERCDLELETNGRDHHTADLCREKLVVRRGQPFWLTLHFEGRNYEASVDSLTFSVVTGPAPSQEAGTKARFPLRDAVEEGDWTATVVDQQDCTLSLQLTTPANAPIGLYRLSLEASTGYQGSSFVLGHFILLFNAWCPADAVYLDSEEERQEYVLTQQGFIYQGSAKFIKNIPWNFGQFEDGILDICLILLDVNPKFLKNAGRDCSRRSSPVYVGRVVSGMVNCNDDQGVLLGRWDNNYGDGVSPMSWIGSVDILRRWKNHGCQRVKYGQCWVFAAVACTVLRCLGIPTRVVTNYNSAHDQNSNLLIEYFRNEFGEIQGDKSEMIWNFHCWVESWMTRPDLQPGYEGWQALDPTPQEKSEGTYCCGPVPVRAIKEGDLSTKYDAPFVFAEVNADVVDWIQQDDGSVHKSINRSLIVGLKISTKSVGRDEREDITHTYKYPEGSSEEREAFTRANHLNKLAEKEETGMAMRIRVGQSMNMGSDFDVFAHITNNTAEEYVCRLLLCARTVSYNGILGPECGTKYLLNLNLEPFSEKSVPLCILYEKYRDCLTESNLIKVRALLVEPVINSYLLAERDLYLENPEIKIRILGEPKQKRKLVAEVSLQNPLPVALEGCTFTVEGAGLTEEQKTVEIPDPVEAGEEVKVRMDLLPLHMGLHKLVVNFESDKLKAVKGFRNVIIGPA
Nature of the test: co-IP; HEK 293TN co-transfected with V5-TG2 and FLAG-Zbtb7a, treated with 10 µM VA4 or DMSO vehicle for 48 h; 300 µg lysate precipitated with rabbit anti-V5, protein A/G magnetic agarose beads, 4 °C; blot for FLAG and V5; lysis buffer 150 mM NaCl, 50 mM Tris-HCl, 1 mM EDTA, 1 mM EGTA, 0.5% NP-40 in PBS.

Results are given in words; binding and its absence hold for the method and conditions named. Binding seen in cells or lysates may run through a third protein. Some results given as binding are weak or reduced against the parent protein; the word gives no strength. Tags and fused reporters may be left off the sequences shown.

“FLAG-tagged Zbtb7a (from UniProt O95365 1-584)”: the binding result is “binds”.
